Results are given in words; binding and its absence hold for the method and conditions named. Binding seen in cells or lysates may run through a third protein. Some entries that bind do so weakly or less than the wild type.
How the values were obtained:
[1] = target: D5R fused to RLuc (D5R-RLuc) (human) (UniProt P21918); experiment: FRET or BRET; BRET1 saturation in living HEK293T cells: constant D5R-RLuc cDNA (0.8 µg), increasing receptor-YFP cDNA; coelenterazine H 5 µM; a saturation curve is read as oligomerization, a straight line as random collision
[2] = target: D5R fused to RLuc (D5R-RLuc) (human) (UniProt P21918); experiment: FRET or BRET; SRET (sequential BRET-FRET) saturation in living HEK293T cells: constant D5R-RLuc cDNA (1 µg) and GHS-R1a-GFP2 cDNA (1.5 µg), increasing GHS-R1b-YFP cDNA (0.1–1.5 µg); DeepBlueC 5 µM
[3] = target: GHS-R1a fused to GFP2 (GHS-R1a-GFP2) (human) (UniProt Q92847); experiment: as above

Chains of the proteins cited; added tags and fusions are not shown. Lines headed by an entry give the natural chain unless they say otherwise; changes in a name come on top. A line that says so, or that is headed by a name, gives the form on record, which may keep a tag or linker.
UniProt P21918: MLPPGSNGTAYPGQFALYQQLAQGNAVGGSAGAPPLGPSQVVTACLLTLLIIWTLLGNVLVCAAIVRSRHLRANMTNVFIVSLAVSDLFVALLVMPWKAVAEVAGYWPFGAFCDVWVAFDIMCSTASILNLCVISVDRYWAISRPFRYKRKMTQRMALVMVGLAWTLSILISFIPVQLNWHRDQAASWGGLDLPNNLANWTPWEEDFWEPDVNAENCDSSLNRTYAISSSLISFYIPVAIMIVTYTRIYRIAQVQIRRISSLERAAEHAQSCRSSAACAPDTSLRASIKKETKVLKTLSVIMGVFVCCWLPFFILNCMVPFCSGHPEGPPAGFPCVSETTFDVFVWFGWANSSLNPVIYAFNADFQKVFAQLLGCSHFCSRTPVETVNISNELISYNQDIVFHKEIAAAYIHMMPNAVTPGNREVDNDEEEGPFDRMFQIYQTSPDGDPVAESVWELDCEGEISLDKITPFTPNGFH
UniProt Q92847: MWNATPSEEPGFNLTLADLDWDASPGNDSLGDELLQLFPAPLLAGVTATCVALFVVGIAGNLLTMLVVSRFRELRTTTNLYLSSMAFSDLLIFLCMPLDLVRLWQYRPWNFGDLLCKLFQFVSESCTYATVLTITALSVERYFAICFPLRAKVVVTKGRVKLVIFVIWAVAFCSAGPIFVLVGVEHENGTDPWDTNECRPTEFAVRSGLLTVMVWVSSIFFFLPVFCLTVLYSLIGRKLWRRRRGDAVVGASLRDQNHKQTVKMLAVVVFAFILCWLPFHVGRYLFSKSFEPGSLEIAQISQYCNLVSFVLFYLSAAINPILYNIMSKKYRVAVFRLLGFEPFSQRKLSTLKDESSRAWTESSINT
GHS-R1b fused to YFP (GHS-R1b-YFP) (Q92847-2, form named): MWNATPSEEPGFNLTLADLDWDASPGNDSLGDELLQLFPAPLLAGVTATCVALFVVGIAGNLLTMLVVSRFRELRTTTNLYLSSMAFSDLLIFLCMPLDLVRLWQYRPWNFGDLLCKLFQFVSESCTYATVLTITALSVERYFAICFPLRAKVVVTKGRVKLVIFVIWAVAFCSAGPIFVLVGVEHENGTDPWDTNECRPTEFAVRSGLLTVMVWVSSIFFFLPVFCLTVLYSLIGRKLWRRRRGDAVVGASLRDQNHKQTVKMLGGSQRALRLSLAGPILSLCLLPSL

Substance	binding [1]	binding [2]	binding [3]
GHS-R1a fused to YFP (GHS-R1a-YFP) (from UniProt Q92847-1 1-366) (receptor)	no binding		
GHS-R1b fused to YFP (GHS-R1b-YFP) (from UniProt Q92847-2 1-289) (receptor)	binds	binds	binds

— PMC8824505, “Complexes of Ghrelin GHS-R1a, GHS-R1b, and Dopamine D1 Receptors Localized in the Ventral Tegmental Area as Main Mediators of the Dopaminergic Effects of Ghrelin” (The Journal of Neuroscience, 2022)
